Values quoted from earlier work, collected in US7598067B2, “PDEs and uses thereof” (priority 2000, dated 2009).
At least one compound was matched to its structure with a doubt left.

What was measured:
PDE 4 = conditions: read-out: PDE Selectivity (IC50); cited from earlier work
T. brucei = conditions: Vassella et al. 1997; cited from earlier work

For `CCOC(=O)c1cnc2c(cnn2CC)c1NN=C(C)C` [Etazolate, etazolate], which IC50 (PDE 4) is on record?
The IC50 was 1.2 µM.

What about the “concentrations inducing in vitro transformation of slender to stumpy forms” value (T. brucei) of the same molecule?
The value was 1 to 2 µM.
